Experimental findings from paper PMC7066847 are described below.

These are yes or no findings as the source states them, for the method shown. Binding seen in cells or lysates may run through a third protein. Some binding calls cover weakened binding; strength is not graded here.

This assay has as its target Fibronectin (human (endogenous in YTS-1)) (UniProt P02751). Kind of assay: co-IP; YTS-1/NEU1 cells (NEU1 overexpressed) lysed in modified RIPA buffer; anti-FN antibody on protein A/G Plus agarose overnight at 4 °C with gentle rotation; FN, β1 and NEU1 in the precipitate assayed by Western blotting. On the technique in general: A western blot detects proteins with antibodies after separation by electrophoresis.

As to “Sialidase-1 (neuraminidase 1) (from UniProt Q99519 48-415) (enzyme)”, the binding entry is reported as “binds”.
